In article PMC3278457:
No constants are given. Whether binding was seen depends on the method and setting. For part of these data: Binding seen in cells or lysates may run through a third protein. Some binding calls cover weakened binding; strength is not graded here.

The chains behind the UniProt entries cited, without tags or fusion partners. Where a name states a change or a piece, a line headed by the entry shows the natural chain unless it says otherwise. A line that says so, or that is headed by a name, gives the form on record, which may keep a tag or linker. Residues count along the entry.
UniProt O35274: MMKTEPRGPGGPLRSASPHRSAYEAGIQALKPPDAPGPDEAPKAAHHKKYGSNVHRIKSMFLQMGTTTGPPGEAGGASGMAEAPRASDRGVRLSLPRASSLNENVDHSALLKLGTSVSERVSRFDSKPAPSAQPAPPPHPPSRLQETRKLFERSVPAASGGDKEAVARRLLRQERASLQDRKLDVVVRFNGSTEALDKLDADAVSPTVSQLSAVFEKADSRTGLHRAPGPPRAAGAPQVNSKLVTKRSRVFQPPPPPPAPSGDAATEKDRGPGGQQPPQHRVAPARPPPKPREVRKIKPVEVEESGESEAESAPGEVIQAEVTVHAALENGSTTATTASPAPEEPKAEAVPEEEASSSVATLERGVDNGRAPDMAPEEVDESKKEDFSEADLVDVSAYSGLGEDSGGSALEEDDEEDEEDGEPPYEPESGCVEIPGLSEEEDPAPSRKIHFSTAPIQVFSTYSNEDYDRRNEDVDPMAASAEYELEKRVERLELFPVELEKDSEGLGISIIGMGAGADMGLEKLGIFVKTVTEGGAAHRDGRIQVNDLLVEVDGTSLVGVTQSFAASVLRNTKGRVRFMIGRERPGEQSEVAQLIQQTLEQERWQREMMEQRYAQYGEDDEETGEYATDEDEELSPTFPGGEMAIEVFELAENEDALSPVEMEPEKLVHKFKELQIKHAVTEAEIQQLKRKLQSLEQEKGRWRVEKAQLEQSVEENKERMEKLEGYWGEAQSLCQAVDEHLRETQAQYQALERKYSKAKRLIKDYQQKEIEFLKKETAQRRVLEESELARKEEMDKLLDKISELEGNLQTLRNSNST
GSTSpN1 (GST-spinophilin residues 1–154): residues 1-154 of O35274
GSTSpN2 (GST-spinophilin residues 151–300): residues 151-300 of O35274
GSTSpC (GST-spinophilin residues 446–817): residues 446-817 of O35274
GSTSpC1 (GST-spinophilin residues 665–817), WT: residues 665-817 of O35274
GSTSpC1 L709P (O35274, form named): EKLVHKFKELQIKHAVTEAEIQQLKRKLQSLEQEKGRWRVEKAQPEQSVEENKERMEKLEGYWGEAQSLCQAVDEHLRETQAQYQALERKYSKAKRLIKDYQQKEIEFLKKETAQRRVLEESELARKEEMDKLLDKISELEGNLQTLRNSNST
GSTSpC1 L688P (O35274, form named): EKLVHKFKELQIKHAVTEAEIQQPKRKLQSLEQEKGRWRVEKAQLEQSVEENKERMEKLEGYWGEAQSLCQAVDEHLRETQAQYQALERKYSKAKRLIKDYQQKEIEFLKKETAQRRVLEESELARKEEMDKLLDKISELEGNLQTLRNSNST
GSTSpC1 L797P (O35274, form named): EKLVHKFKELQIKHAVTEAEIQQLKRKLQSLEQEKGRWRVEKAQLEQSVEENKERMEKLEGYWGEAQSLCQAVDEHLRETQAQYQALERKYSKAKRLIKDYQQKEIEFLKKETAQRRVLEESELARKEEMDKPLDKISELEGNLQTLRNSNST
GSTSpC1 L751P (O35274, form named): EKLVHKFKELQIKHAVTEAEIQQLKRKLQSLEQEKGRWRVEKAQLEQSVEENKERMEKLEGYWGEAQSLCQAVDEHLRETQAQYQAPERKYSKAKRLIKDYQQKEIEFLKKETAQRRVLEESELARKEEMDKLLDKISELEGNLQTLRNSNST
UniProt Q6R891: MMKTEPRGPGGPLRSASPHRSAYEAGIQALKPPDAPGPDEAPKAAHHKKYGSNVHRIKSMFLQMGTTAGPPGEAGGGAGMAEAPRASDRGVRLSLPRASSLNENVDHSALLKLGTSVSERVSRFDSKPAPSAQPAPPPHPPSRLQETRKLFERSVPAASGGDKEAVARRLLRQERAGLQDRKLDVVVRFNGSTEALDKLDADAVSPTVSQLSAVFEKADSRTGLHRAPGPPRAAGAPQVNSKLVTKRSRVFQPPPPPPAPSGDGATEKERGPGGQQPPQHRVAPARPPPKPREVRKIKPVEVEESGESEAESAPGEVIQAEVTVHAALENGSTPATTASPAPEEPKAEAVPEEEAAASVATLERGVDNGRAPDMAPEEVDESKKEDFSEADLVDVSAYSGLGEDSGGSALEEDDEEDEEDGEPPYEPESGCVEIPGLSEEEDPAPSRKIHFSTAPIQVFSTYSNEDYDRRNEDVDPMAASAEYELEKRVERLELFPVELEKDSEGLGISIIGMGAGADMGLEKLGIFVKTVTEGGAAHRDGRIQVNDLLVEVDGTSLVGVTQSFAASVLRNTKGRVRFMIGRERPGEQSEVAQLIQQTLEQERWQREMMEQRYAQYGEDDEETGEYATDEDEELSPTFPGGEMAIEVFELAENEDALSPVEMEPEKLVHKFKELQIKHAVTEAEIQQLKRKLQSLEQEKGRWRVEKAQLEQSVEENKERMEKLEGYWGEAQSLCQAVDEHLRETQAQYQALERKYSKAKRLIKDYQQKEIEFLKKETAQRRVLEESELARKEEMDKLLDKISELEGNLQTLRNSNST
UniProt P28652: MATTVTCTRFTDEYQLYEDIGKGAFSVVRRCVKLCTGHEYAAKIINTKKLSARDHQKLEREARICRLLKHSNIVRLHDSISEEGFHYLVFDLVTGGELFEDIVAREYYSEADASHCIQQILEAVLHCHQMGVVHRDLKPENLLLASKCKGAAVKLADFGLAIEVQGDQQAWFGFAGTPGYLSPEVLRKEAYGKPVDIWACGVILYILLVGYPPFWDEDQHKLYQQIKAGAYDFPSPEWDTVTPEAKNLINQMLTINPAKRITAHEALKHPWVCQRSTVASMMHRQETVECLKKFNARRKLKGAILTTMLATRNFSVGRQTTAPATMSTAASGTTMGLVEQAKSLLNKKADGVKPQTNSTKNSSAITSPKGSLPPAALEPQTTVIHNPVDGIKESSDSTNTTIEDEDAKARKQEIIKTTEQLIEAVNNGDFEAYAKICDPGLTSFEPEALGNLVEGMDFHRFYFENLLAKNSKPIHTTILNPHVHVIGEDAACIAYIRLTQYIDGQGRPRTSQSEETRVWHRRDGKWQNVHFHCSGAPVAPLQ
UniProt Q80TE7: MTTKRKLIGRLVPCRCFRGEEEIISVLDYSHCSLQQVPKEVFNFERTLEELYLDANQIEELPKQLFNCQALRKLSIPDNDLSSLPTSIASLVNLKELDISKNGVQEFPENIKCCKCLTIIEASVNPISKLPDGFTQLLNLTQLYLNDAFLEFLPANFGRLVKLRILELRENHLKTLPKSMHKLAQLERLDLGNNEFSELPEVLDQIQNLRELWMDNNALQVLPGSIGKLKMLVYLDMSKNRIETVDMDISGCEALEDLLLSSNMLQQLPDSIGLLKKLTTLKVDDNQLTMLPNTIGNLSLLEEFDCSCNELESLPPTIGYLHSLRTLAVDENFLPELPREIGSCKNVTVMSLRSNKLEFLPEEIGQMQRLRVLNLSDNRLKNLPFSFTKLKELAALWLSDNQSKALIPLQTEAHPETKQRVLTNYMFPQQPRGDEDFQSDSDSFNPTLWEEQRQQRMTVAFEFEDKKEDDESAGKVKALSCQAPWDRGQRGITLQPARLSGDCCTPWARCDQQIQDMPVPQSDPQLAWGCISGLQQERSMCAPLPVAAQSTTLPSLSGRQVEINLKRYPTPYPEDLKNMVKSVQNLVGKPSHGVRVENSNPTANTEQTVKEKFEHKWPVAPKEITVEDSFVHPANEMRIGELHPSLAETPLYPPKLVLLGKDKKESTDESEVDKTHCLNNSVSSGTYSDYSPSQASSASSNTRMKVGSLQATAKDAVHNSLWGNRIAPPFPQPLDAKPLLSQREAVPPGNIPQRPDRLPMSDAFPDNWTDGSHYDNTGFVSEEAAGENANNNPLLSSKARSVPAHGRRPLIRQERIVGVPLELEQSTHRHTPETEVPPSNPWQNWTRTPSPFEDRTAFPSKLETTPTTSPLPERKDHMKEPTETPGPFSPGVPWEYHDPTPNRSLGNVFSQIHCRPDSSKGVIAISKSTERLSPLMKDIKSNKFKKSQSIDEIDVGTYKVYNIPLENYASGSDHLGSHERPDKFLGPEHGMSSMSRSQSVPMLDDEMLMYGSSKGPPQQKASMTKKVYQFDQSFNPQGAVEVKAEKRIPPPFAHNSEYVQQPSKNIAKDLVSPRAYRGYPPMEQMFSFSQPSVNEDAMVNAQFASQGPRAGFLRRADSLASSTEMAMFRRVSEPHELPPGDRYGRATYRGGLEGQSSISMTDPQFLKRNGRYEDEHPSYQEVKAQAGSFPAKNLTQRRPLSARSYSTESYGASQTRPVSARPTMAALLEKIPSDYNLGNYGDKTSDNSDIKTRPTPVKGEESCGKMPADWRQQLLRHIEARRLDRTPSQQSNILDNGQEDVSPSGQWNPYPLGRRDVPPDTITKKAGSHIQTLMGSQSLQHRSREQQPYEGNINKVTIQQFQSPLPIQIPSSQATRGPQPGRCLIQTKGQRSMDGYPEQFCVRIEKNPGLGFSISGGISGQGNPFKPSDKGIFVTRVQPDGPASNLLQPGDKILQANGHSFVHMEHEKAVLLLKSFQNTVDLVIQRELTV
UniProt Q99104: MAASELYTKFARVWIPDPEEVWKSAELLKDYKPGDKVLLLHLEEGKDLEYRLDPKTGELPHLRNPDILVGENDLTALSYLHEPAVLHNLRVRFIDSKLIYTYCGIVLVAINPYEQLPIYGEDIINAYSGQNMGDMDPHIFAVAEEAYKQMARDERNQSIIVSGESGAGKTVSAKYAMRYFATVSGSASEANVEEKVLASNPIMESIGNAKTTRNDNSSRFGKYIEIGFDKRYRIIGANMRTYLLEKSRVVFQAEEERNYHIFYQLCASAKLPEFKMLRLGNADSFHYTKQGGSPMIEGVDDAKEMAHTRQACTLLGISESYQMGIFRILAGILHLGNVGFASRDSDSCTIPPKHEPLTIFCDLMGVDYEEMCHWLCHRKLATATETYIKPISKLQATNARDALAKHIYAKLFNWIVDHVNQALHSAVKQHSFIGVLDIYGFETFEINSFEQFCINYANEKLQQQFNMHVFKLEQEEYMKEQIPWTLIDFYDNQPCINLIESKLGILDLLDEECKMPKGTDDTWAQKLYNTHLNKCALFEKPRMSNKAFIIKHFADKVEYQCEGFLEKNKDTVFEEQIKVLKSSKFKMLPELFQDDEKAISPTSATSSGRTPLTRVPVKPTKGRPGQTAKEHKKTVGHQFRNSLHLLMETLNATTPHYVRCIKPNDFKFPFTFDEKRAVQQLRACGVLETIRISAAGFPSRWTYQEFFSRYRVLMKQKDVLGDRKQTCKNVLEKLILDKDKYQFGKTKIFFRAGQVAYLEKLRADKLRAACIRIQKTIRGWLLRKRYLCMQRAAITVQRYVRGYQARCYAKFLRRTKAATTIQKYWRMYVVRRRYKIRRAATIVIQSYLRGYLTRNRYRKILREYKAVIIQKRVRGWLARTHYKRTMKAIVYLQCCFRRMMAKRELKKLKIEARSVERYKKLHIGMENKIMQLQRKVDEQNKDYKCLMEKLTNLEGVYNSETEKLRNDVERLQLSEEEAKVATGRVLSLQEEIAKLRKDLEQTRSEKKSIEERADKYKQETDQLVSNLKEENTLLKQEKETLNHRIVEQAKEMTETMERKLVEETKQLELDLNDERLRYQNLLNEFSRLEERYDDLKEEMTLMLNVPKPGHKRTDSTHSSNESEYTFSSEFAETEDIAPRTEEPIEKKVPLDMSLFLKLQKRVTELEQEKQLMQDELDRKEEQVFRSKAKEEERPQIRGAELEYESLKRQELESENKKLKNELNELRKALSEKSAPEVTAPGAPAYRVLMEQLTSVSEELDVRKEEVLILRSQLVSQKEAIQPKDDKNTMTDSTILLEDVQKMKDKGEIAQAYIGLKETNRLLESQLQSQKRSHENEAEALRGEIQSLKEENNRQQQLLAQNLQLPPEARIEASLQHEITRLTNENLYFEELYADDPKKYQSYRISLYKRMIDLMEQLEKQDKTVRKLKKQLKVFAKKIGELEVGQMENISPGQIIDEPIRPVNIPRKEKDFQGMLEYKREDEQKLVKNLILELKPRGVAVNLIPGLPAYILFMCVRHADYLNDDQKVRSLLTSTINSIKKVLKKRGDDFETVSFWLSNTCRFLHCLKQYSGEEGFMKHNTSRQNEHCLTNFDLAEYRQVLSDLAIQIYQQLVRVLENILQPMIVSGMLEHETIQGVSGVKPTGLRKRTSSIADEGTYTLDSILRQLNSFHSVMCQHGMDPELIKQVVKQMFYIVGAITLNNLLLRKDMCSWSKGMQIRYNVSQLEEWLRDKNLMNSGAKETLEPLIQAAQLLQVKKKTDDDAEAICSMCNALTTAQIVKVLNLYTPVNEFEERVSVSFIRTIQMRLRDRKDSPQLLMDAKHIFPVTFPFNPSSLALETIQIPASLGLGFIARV

How the values were obtained:
[1] = target: GSTSpC1 (GST-spinophilin residues 665–817), WT (UniProt O35274); assay: pull-down; as the GST pull-down of purified proteins, with increasing concentrations of a second purified protein (F-actin, CaMKII or His-spinophilin, up to 10-fold molar excess) as competitor; CaMKIIα 250 nM in Fig. 1F; glutathione agarose; immunoblot; both purified
[2] = target: GSTSpC1 (GST-spinophilin residues 665–817), WT (UniProt O35274); assay: pull-down; GST constructs (250 nM) incubated with purified CaMKII, His-spinophilin or F-actin in 50 mM Tris-HCl pH 7.5, 200 mM NaCl, 0.5% Triton X-100 for 60 min; isolated on glutathione agarose; immunoblot; both purified
[3] = target: GSTSpC1 L709P (UniProt O35274); assay: pull-down; GST constructs (10 µg) incubated with 350–500 µl of mouse striatal (Fig. 9A: whole forebrain) Triton-soluble fraction, WT or T286A-KI, PND21 or adult; 50 mM Tris-HCl pH 7.5, 200 mM NaCl, 0.5% Triton X-100; glutathione agarose overnight; immunoblot; only the target purified
[4] = target: GSTSpC1 L688P (UniProt O35274); assay: as above
[5] = target: GSTSpC1 L797P (UniProt O35274); assay: as above
[6] = target: GSTSpC1 L751P (UniProt O35274); assay: as above
[7] = target: GSTSpC1 (GST-spinophilin residues 665–817), WT (UniProt O35274); assay: as above
[8] = target: spinophilin, endogenous in mouse striatal TSF (mouse (endogenous in striatum)) (UniProt Q6R891); assay: co-IP; spinophilin immunoprecipitated with 4 µg goat spinophilin antibody from mouse striatal TSFs (WT or T286A-KI; PND21 or adult); immunoblot
[9] = target: GSTSpN2 (GST-spinophilin residues 151–300) (UniProt O35274); assay: pull-down; GST constructs (10 µg) incubated with 350–500 µl of mouse striatal (Fig. 9A: whole forebrain) Triton-soluble fraction, WT or T286A-KI, PND21 or adult; 50 mM Tris-HCl pH 7.5, 200 mM NaCl, 0.5% Triton X-100; glutathione agarose overnight; immunoblot; only the target purified
[10] = target: GSTSpC (GST-spinophilin residues 446–817) (UniProt O35274); assay: as above
[11] = target: GSTSpN1 (GST-spinophilin residues 1–154) (UniProt O35274); assay: as above
[12] = target: CaMKIIβ, endogenous in mouse brain Triton-soluble fraction (mouse (endogenous in striatum)) (UniProt P28652); assay: co-IP; CaMKII immunoprecipitated with 3.75 µg of the mouse CaMKIIβ antibody from striatal TSFs of PND21, adult or aged mice; immunoblot

purified, full-length, WT, His-tagged spinophilin (from UniProt O35274 1-817)
binding [1]: binds
binding [2]: binds

spinophilin, endogenous in mouse striatal TSF (from UniProt Q6R891 1-817)
binding [3]: binds
binding [4]: binds
binding [5]: binds
binding [6]: binds

densin, endogenous in mouse striatal TSF (from UniProt Q80TE7 1-1490)
binding [4]: binds
binding [7]: binds
binding [5]: binds

myosin Va, endogenous in mouse striatal TSF (from UniProt Q99104 1-1853)
binding [8]: binds

CaMKIIβ, endogenous in mouse brain Triton-soluble fraction (from UniProt P28652 1-542) (enzyme)
binding [9]: binds

B1: doublecortin, endogenous in mouse striatal TSF (protein, UniProt O88809 1-366)
chain: MELDFGHFDERDKASRNMRGSRMNGLPSPTHSAHCSFYRTRTLQALSNEKKAKKVRFYRNGDRYFKGIVYAVSSDRFRSFDALLADLTRSLSDNINLPQGVRYIYTIDGSRKIGSMDELEEGESYVCSSDNFFKKVEYTKNVNPNWSVNVKTSANMKAPQSLASSNSAQARENKDFVRPKLVTIIRSGVKPRKAVRVLLNKKTAHSFEQVLTDITEAIKLETGVVKKLYTLDGKQVTCLHDFFGDDDVFIACGPEKFRYAQDDFSLDENECRVMKGNPSAAAGPKASPTPQKTSAKSPGPMRRSKSPADSGNDQDANGTSSSQLSTPKSKQSPISTPTSPGSLRKHKVDLYLPLSLDDSDSLGDSM
binding [10]: binds

B2: α-internexin, endogenous in mouse striatal TSF (protein, UniProt P46660 1-501)
chain: MSFGSEHYLCSASSYRKVFGDSSRLSARLSGPGGSGSFRSQSLSRSNVASTAACSSASSLGLGLAYRRLPASDGLDLSQAAARTNEYKIIRTNEKEQLQGLNDRFAVFIEKVHQLETQNRALEAELAALRQRHAEPSRVGELFQRELRELRAQLEEASSARAQALLERDGLAEEVQRLRARCEEESRGREGAERALKAQQRDVDGATLARLDLEKKVESLLDELAFVRQVHDEEVAELLATLQASSQAAAEVDVAVAKPDLTSALREIRAQYESLAAKNLQSAEEWYKSKFANLNEQAARSTEAIRASREEIHEYRRQLQARTIEIEGLRGANESLERQILELEERHSAEVAGYQDSIGQLESDLRNTKSEMARHLREYQDLLNVKMALDIEIAAYRKLLEGEETRFSTGGLSISGLNPLPNPSYLLPPRILSSTASKVSSAGLSLKKEEEEEEEEASKEVSKKTSKVGEGFEETLGEAVISTKKTGKSATEESTSSSQKM
binding [8]: binds
binding [11]: binds
binding [12]: binds
